According to patent publication US20240390362A1, “METHODS OF TREATING ERYTHROPOIETIC PROTOPORPHYRIA, X-LINKED PROTOPORPHYRIA, OR CONGENITAL ERYTHROPOIETIC PORPHYRIA WITH A SOLID FORM OF BITOPERTIN” (Disc Medicine, Inc., priority 2021, published 2024):
Some entries share one result that the patent states for a list of compounds. At least one compound was matched to its structure with a doubt left.

Test system: K562 clone-9 cells
Assay: EPP cellular model: PPIX level in FECH-edited K562 clone by flow cytometry
Format: cell-based
Details: 96 hours

CN1C[C@@H]2[C@H](C1)[C@H]2CN(Cc1ccc(F)c(Cl)c1)C(=O)c1cn(C)cn1 [PF-03463275]
dose-dependent inhibition of PPIX accumulation by flow cytometry (maximum): up to 50%
